PubChem BioAssay AID504774 | Drosophila RNAi Screening Center | 2011
Purpose: 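Fly genes whose loss alters survival after alkylation damage to DNA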 (primary screen). Cells: Drosophila Kc167 cells. Knock-down reagent: long dsRNA against Drosophila genes, about 0.25 µg dsRNA per well. Duration: about 6 days: 3 days knock-down, then 3 days with or without MMS. Challenge: methyl methanesulphonate 0.004% (w/v) for 3 days after knock-down. Measured: 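ATP-dependent luminescence as a measure of live cells in MMS-exposed wells, quantile normalised within each plate, with replicate values also given as a mean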. Direction: mean viability with MMS and viability with MMS: higher = more surviving cells after MMS.
In all, the deposit lists about 23,000 reagents; shown is a random part of those with a known target gene and a result. 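Values are quantile-normalised luminescence on an arbitrary scale; higher means more cells surviving MMS.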 The numbers tell different reagents against one gene apart. Further read-outs or replicates are left out here. Reagent sequences are not shown.

sau (GeneID 33402) gave mean viability with MMS 3.24e6; viability with MMS, replicate 1 = 3.76e6. With knock-down of Tssk (GeneID 42233) the results were mean viability with MMS 3.54e6; viability with MMS, replicate 1 = 4.01e6. For CG15096 (GeneID 37170) the deposit lists mean viability with MMS 3.48e6; viability with MMS, replicate 1 = 3.96e6. After knock-down of CG15535 (GeneID 43608), the screen gave mean viability with MMS 3.70e6; viability with MMS, replicate 1 = 4.13e6. CG6503 (GeneID 50079) scored mean viability with MMS 3.25e6; viability with MMS, replicate 1 = 3.71e6. Against Cht6 (GeneID 31935) #1 the deposit lists mean viability with MMS 3.49e6; viability with MMS, replicate 1 = 4.00e6.

Knock-down of Cht6 (GeneID 31935) #2 resulted in: mean viability with MMS 3.08e6; viability with MMS, replicate 1 = 3.69e6. Knock-down of Cht6 (GeneID 31935) #3 came out at: mean viability with MMS 3.63e6; viability with MMS, replicate 1 = 4.06e6. With knock-down of Cht6 (GeneID 31935) #4, the screen gave mean viability with MMS 3.45e6; viability with MMS, replicate 1 = 3.93e6. For CG33140 (GeneID 35642), the entry reads mean viability with MMS 3.64e6; viability with MMS, replicate 1 = 4.13e6. Tti1 (GeneID 41189) scored mean viability with MMS 3.38e6; viability with MMS, replicate 1 = 3.93e6. After knock-down of tHMG2 (GeneID 42651), the screen gave mean viability with MMS 3.70e6; viability with MMS, replicate 1 = 4.40e6.

After knock-down of cta (GeneID 3355131), the screen gave mean viability with MMS 3.50e6; viability with MMS, replicate 1 = 3.84e6. Against flfl (GeneID 41675), the entry reads mean viability with MMS 3.44e6; viability with MMS, replicate 1 = 3.84e6. Depletion of Ugt303B3 (GeneID 42774) resulted in: mean viability with MMS 3.55e6; viability with MMS, replicate 1 = 4.09e6. After knock-down of CG3434 (GeneID 39098), the screen gave mean viability with MMS 3.50e6; viability with MMS, replicate 1 = 3.91e6. After knock-down of nvy (GeneID 37886) the results were mean viability with MMS 3.68e6; viability with MMS, replicate 1 = 4.28e6. With knock-down of px (GeneID 37573) #1, the record shows mean viability with MMS 2.79e6; viability with MMS, replicate 1 = 3.42e6.

Against px (GeneID 37573) #2, the values are mean viability with MMS 2.74e6; viability with MMS, replicate 1 = 2.42e6. With knock-down of Tbc1d22 (GeneID 42498) the results were mean viability with MMS 3.49e6; viability with MMS, replicate 1 = 3.96e6. borr (GeneID 34245) showed mean viability with MMS 3.01e6; viability with MMS, replicate 1 = 3.35e6. For CG13097 (GeneID 34184), the values are mean viability with MMS 3.18e6; viability with MMS, replicate 1 = 3.51e6. sunz (GeneID 40811) gave mean viability with MMS 3.66e6; viability with MMS, replicate 1 = 4.23e6. Silencing of CG31639 (GeneID 318866) came out at: mean viability with MMS 3.48e6; viability with MMS, replicate 1 = 4.10e6.

l(3)L1231 (GeneID 41776) scored mean viability with MMS 3.58e6; viability with MMS, replicate 1 = 4.21e6. Depletion of CG3565 (GeneID 37933) resulted in: mean viability with MMS 3.57e6; viability with MMS, replicate 1 = 4.02e6. Silencing of Pura (GeneID 2768948) #1 gave: mean viability with MMS 3.39e6; viability with MMS, replicate 1 = 3.87e6. After knock-down of Pura (GeneID 2768948) #2 the results were mean viability with MMS 3.53e6; viability with MMS, replicate 1 = 4.02e6. Pura (GeneID 2768948) #3 scored mean viability with MMS 3.52e6; viability with MMS, replicate 1 = 3.97e6. After knock-down of Pura (GeneID 2768948) #4 the results were mean viability with MMS 3.49e6; viability with MMS, replicate 1 = 3.98e6.

Pura (GeneID 2768948) #5 showed mean viability with MMS 3.66e6; viability with MMS, replicate 1 = 4.13e6. CCT1 (GeneID 42649) showed mean viability with MMS 3.19e6; viability with MMS, replicate 1 = 3.70e6. After knock-down of CG5021 (GeneID 39025), the screen gave mean viability with MMS 3.47e6; viability with MMS, replicate 1 = 3.92e6. For CG16984 (GeneID 38322), the entry reads mean viability with MMS 3.63e6; viability with MMS, replicate 1 = 4.18e6. Knock-down of Nrk (GeneID 36445) gave: mean viability with MMS 3.63e6; viability with MMS, replicate 1 = 4.02e6. For CG12496 (GeneID 31226) the deposit lists mean viability with MMS 3.34e6; viability with MMS, replicate 1 = 3.78e6.

Against CG12321 (GeneID 42174), the entry reads mean viability with MMS 3.66e6; viability with MMS, replicate 1 = 4.08e6. With knock-down of CG18675 (GeneID 50169) the results were mean viability with MMS 3.51e6; viability with MMS, replicate 1 = 3.96e6. Against Tsen54 (GeneID 39397), the values are mean viability with MMS 3.86e6; viability with MMS, replicate 1 = 3.94e6. With knock-down of Shc (GeneID 44052), the record shows mean viability with MMS 3.47e6; viability with MMS, replicate 1 = 4.00e6. Knock-down of CG17242 (GeneID 59226) gave: mean viability with MMS 3.50e6; viability with MMS, replicate 1 = 3.99e6. Silencing of RhoGAP68F (GeneID 39385) came out at: mean viability with MMS 3.43e6; viability with MMS, replicate 1 = 3.86e6.

With knock-down of CG32055 (GeneID 39188), the record shows mean viability with MMS 3.78e6; viability with MMS, replicate 1 = 4.33e6. With knock-down of Ir94a (GeneID 318610) the results were mean viability with MMS 3.46e6; viability with MMS, replicate 1 = 3.91e6. After knock-down of CG4956 (GeneID 43114), the screen gave mean viability with MMS 3.70e6; viability with MMS, replicate 1 = 4.12e6.

4 entries from above, showing only “mean viability with MMS”.
flfl (GeneID 41675) = 3.44e6
Ugt303B3 (GeneID 42774) = 3.55e6
CG3434 (GeneID 39098) = 3.50e6
nvy (GeneID 37886) = 3.68e6
